From article PMC8956657
These are yes or no findings as the source states them, for the method shown. In cells and extracts the contact can be indirect. Some entries that bind do so weakly or less than the wild type.

Protein sequences, listed by entry. Tags and fused reporters are not part of them.
UniProt O00629: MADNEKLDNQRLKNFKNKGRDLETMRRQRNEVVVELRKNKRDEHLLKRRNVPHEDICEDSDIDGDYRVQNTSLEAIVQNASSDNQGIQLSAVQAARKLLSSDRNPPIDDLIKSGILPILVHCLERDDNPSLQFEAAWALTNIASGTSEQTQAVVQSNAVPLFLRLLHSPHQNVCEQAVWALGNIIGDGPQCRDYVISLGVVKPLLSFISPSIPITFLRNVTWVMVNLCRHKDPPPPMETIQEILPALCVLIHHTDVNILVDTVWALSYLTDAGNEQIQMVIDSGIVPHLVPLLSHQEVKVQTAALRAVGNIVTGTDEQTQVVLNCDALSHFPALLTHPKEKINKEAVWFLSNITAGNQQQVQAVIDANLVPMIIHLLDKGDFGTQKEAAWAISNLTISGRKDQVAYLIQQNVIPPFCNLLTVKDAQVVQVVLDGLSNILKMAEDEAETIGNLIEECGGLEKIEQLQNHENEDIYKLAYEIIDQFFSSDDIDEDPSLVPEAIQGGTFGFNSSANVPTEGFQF
UniProt P52294: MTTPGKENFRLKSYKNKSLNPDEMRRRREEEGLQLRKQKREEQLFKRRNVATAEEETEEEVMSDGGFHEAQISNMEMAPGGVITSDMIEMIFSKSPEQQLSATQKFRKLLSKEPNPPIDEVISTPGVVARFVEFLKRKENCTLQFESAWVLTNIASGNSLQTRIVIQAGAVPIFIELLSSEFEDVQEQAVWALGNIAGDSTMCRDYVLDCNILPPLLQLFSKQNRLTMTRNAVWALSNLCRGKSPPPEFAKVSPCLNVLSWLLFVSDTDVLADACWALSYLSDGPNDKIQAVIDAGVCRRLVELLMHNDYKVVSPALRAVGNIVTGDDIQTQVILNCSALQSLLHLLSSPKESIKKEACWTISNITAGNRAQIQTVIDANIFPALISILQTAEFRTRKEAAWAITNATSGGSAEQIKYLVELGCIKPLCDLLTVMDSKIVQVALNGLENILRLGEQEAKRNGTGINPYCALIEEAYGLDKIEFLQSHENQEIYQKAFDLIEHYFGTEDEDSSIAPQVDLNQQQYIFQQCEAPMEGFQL
UniProt K9N643: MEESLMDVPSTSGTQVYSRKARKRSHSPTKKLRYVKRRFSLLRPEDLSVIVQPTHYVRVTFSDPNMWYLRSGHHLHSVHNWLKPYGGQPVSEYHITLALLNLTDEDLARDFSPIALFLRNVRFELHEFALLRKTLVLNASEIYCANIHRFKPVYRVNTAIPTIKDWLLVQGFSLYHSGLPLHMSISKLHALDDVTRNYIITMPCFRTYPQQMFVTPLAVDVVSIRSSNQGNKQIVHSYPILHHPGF

Assays:
[1] = molecular target: full-length HA-tagged IMPα3 (UniProt O00629); experiment: co-IP
[2] = molecular target: full-length HA-tagged IMPα5 (UniProt P52294); experiment: co-IP

In the case of “full-length FLAG-tagged MERS-CoV ORF4b (from UniProt K9N643 1-246)”, the binding [1] is reported as “binds” and the binding [2] is reported as “binds”.
